At least one read-out could not be matched to a standard name with certainty.
How the values were obtained:
Experiment in all cases: Post-emergence weed control test (greenhouse, pot)
Format in all cases: in vivo
Details in all cases: 1200 g/ha, after 3 weeks, fresh weight inhibition rate
Sinapis arvensis = tested on: Sinapis arvensis
Descurainia sophia = tested on: Descurainia sophia
Capsella bursa-pastoris = tested on: Capsella bursa-pastoris

| SMILES | weed control effect, Sinapis arvensis (activity level) (Sinapis arvensis) | weed control effect, Descurainia sophia (activity level) (Descurainia sophia) | weed control effect, Capsella bursa-pastoris (activity level) (Capsella bursa-pastoris) |
| --- | --- | --- | --- |
| Cc1c(C(F)(F)F)nnc(-c2ccc(F)nc2F)c1O [Compound 94] | 5 (Level 5: growth control rate is above 85%) | 5 (Level 5: growth control rate is above 85%) | 5 (Level 5: growth control rate is above 85%) |
| C=C(C)c1c(C(F)(F)F)nnc(-c2cnn(C(F)(F)F)c2)c1O [Compound 169] | 5 (Level 5: growth control rate is above 85%) | 5 (Level 5: growth control rate is above 85%) | 5 (Level 5: growth control rate is above 85%) |
| Cc1c(C(F)(F)F)nnc(-c2cccnc2F)c1O [Compound 109] | 5 (Level 5: growth control rate is above 85%) | 5 (Level 5: growth control rate is above 85%) | 5 (Level 5: growth control rate is above 85%) |
| Oc1c(-c2ccc(F)c(F)c2)nnc(C(F)(F)F)c1C1CC1 [Compound 117] | 5 (Level 5: growth control rate is above 85%) | 5 (Level 5: growth control rate is above 85%) | 5 (Level 5: growth control rate is above 85%) |
| Cc1c(C(F)(F)F)nnc(-c2cc(F)c(F)c(F)c2)c1O [Compound 334] | 5 (Level 5: growth control rate is above 85%) | 5 (Level 5: growth control rate is above 85%) | 5 (Level 5: growth control rate is above 85%) |
| N#Cc1ccc(-c2nnc(C(F)(F)F)c(C3CC3)c2O)cc1 [Compound 7] | 5 (Level 5: growth control rate is above 85%) | 5 (Level 5: growth control rate is above 85%) | 5 (Level 5: growth control rate is above 85%) |
| Cc1c(C(F)(F)F)nnc(-c2cncc(Cl)c2)c1O [Compound 111] | 5 (Level 5: growth control rate is above 85%) | 5 (Level 5: growth control rate is above 85%) | 5 (Level 5: growth control rate is above 85%) |
| Cc1c(C(F)(F)F)nnc(-c2ccnc(Cl)c2)c1O [Compound 110] | 5 (Level 5: growth control rate is above 85%) | 5 (Level 5: growth control rate is above 85%) | 5 (Level 5: growth control rate is above 85%) |
| C=C(C)c1c(C(F)(F)F)nnc(-c2ccc(C#N)nc2)c1O [Compound 164] | 5 (Level 5: growth control rate is above 85%) | 5 (Level 5: growth control rate is above 85%) | 5 (Level 5: growth control rate is above 85%) |
| C=C(C)c1c(C(F)(F)F)nnc(-c2ccc3c(c2)OC(F)(F)O3)c1O [Compound 409] | 5 (Level 5: growth control rate is above 85%) | 3 (Level 3: growth control rate is greater than or equal to 40% and less than 60%) | 3 (Level 3: growth control rate is greater than or equal to 40% and less than 60%) |
| CN(C)c1c(C(F)(F)F)nnc(-c2ccc(C#N)cc2)c1O [Compound 18] | 4 (Level 4: growth control rate is greater than or equal to 60% and less than 85%) | 3 (Level 3: growth control rate is greater than or equal to 40% and less than 60%) | 3 (Level 3: growth control rate is greater than or equal to 40% and less than 60%) |
| Oc1c(-c2cccnc2Cl)nnc(C(F)(F)F)c1C1CC1 [Compound 135] | 5 (Level 5: growth control rate is above 85%) | 5 (Level 5: growth control rate is above 85%) | 5 (Level 5: growth control rate is above 85%) |

From patent publication US12356990B2, “Pyridazinol compound, derivative thereof, preparation method therefor, herbicidal composition and use thereof” (QINGDAO KINGAGROOT CHEMICAL COMPOUND CO., LTD., priority 2019, dated 2025)
